From PubChem BioAssay (NCATS)
Inconclusive results, whose numbers are uncertain, are shown with a selection of clear calls. Potencies of inconclusive entries are doubtful fits and often do not repeat. Calls of active or inactive are those of the source. The call rests on the fitted dose curve; in most records, active means well fitted curve in the direction sought with a large enough effect; inconclusive means small, poorly fitted or top-dose-only effect, or another doubt; inactive means no such curve, though single readings can be large; an effect the other way counts as inactive or inconclusive.

Amino acid sequences for entries named in this document (tags omitted). A change or cut given only in a name is not applied to a line headed by its entry.
UniProt Q8WZA2: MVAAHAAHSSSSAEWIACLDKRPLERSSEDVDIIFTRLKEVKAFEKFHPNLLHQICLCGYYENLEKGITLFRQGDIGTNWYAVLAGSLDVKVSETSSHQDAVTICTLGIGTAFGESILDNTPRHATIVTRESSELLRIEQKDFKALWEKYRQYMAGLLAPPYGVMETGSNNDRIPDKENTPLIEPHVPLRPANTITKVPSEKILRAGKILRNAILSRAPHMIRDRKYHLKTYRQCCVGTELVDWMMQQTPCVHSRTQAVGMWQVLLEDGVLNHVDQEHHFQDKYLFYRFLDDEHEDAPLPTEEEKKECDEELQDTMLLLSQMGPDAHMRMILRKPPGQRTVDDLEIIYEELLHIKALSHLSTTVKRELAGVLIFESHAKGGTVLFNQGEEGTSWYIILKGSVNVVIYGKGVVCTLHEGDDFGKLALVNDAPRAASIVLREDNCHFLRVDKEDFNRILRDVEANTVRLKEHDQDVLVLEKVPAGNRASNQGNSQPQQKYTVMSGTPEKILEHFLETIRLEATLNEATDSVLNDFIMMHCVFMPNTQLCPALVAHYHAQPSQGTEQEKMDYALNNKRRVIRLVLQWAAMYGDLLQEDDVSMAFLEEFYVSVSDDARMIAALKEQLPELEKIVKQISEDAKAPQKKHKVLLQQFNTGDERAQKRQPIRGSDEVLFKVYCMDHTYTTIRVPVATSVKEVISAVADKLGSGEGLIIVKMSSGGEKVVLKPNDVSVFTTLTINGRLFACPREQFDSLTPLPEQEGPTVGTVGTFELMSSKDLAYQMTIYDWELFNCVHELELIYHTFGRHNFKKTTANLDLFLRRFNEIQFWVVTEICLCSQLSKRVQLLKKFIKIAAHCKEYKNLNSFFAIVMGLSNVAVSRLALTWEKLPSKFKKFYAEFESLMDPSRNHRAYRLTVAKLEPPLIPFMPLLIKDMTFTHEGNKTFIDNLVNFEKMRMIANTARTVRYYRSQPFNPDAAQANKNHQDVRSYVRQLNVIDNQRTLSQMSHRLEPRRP

How the values were obtained:
[1] = target: Rap guanine nucleotide exchange factor 4 (Homo sapiens) (UniProt Q8WZA2); assay: Confirmatory qHTS for agonist of cAMP-regulated guanine nucleotide exchange factor 4 (EPAC2) (AID 1645884);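 further: nucleotide exchange releases bodipy-GDP from Rap1 and this lowers its fluorescence; nearly all actives have a fitted effect of over 65% in size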; on activation: on the % scale 0 is the no-effect control and ±100 the full control effect
[2] = target: Rap guanine nucleotide exchange factor 3 (Homo sapiens) (UniProt O95398); assay: Counterscreen qHTS for agonist of cAMP-regulated guanine nucleotide exchange factor 3 (EPAC1) (AID 1645889); conditions: EPAC1 Rap1B-BODIPY-GDP exchange, fluorescence; activation: at 154 µM (top of the series) unless noted; further: nearly all actives have a fitted effect of over 40% in size; on activation: % of control where 0% means no effect
Outline: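 Rap1B–BODIPY-GDP (250 nM) with 50 uM GDP; compounds pin-transferred to 9.74 nM–152 uM final (activator) or from 7.32 nM upwards (inhibitor). Fluorescence Ex/Em 480/540 nm read at 5 and 30 min, then after adding cAMP or buffer, at room temperature.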
Potency means the concentration at half of the fitted maximal effect.

Row | SMILES | Potency [1] | Potency [2] | activation [2] | activation [1]
1 | CC(=O)Nc1ccc(NC(=O)CCC(=O)OCC(=O)c2ccc(C)c([N+](=O)[O-])c2)cc1 | inactive | inconclusive: 20 µM [activator, single point] |  | 
2 | Cc1cc(C)cc(NC(=O)c2sc3nc(-c4cc5ccccc5oc4=O)[nH]c(=O)c3c2C)c1 | inconclusive: 50.1 µM [activator, single point] | inconclusive: 112 µM [activator, single point] |  | 
3 | COc1ccc2ccccc2c1C(O)c1nccn1C (configuration not stated) | inconclusive: 100 µM [activator, partial curve] | inconclusive: 22.4 µM [activator, partial curve] |  | 
4 | CC(C)COc1ccc(C(=O)Nc2cc(-c3ccccc3)no2)cc1 | inconclusive: 56.2 µM [activator, partial curve, poor fit] | inactive |  | 
5 | CC(=O)Nc1ccc(S(=O)(=O)NCCC(=O)Nc2cc(C)ccn2)cc1 | inactive | inconclusive: 0.01 µM [activator, full curve, poor fit] |  | 
6 | Cc1ccc(S(=O)(=O)CC(=O)N(CCCN(C)C)c2nc3ccc(C)cc3s2)cc1 | inactive |  | inconclusive: 27.8% [activator] | 
7 | Cc1ccc(C)c(Oc2nnnn2-c2ccccc2)c1 | inconclusive: 112 µM [activator, partial curve, poor fit] | inactive |  | 
8 | Cc1ccc(-n2nc(C(=O)N(C)c3ccc(C)c(C)c3)c3c4ccccc4n(C)c3c2=O)cc1 | inactive |  | inconclusive: 62.7% [activator] | 
9 | COc1ccc2c(Cl)c(C(=O)N/N=C3\CCCC(=O)C3)sc2c1 | inconclusive: 126 µM [activator, single point] | active: 39.8 µM |  | 
10 | Cc1ccccc1SCC(=O)Nc1cc(C(F)(F)F)ccc1N1CCOCC1 | inconclusive: 56.2 µM [activator, partial curve] |  | inconclusive: 44.8% [activator] | 
11 | CCCCn1c(N)c(N(CC(C)C)C(=O)C2CCN(S(=O)(=O)c3ccc(C)c(C)c3)CC2)c(=O)[nH]c1=O | inactive | inactive |  | 
12 | Cc1ccc2oc(=O)n(CCOc3ccccc3Cl)c2c1 | inactive | inactive |  | 
13 | COc1cccc(-c2nc(N3CCN(c4ccccc4)CC3)c3ccccc3n2)c1O | inconclusive: 100 µM [activator, single point] | inconclusive: 50.1 µM [activator, partial curve, poor fit] |  | 
14 | COC(=O)c1c(SC)nc2ccccc2c1OCc1ccc(Cl)cc1 | inconclusive: 50.1 µM [activator, single point] |  | inconclusive: 31.9% [activator] | 
15 | c1ccc(NN(Cc2ccccn2)c2ccccc2)cc1 | inconclusive: 100 µM [activator, partial curve, poor fit] | inconclusive: 8.91 µM [activator, partial curve, poor fit] |  | 
16 | COC(=O)c1cn(C(=O)c2ccc(OC)cc2)c2ccccc12 | active: 31.6 µM | inconclusive: 39.8 µM [activator, partial curve] |  | 
17 | CN(C)/C=C1\C=C2C(=O)c3ccccc3N2C1=O | active: 5.01 µM | active: 10 µM |  | 
18 | CCN(CC)CCCC(C)n1c2nc(=O)[nH]c(=O)c-2nc2cc(Cl)ccc21 (configuration not stated) | active: 100 µM | active: 63.1 µM |  | 
19 | COc1ccc(CNC(=O)C(=O)Nc2ccc(OC)cc2OC)cc1 | inactive | inconclusive: 15.8 µM [activator, partial curve, poor fit] |  | 
20 | O=C(Nc1ncccc1O)c1ccc2c(c1)OCCO2 |  |  | inactive: 22.4% [at 30.8 µM] | inactive: 2.78% [at 17.1 µM, percent relative to cAMP agonist control]
21 | CCOc1cc(-c2ccc(OC(=O)c3ccc(OC)cc3)c(OC)c2)cc(=O)c2c(C)oc(C)c12 | inconclusive: 50.1 µM [activator, partial curve, poor fit] | inconclusive: 10 µM [activator, partial curve, poor fit] |  | 

Ordered by number of heavy atoms (rising): part of the list above
Row | SMILES | Potency [1] | Potency [2] | activation [2] | activation [1]
17 | CN(C)/C=C1\C=C2C(=O)c3ccccc3N2C1=O | active: 5.01 µM | active: 10 µM |  | 
13 | COc1cccc(-c2nc(N3CCN(c4ccccc4)CC3)c3ccccc3n2)c1O | inconclusive: 100 µM [activator, single point] | inconclusive: 50.1 µM [activator, partial curve, poor fit] |  | 
2 | Cc1cc(C)cc(NC(=O)c2sc3nc(-c4cc5ccccc5oc4=O)[nH]c(=O)c3c2C)c1 | inconclusive: 50.1 µM [activator, single point] | inconclusive: 112 µM [activator, single point] |  | 
